These are yes or no findings as the source states them, for the method shown. In cells and extracts the contact can be indirect. Some entries that bind do so weakly or less than the wild type.
Target: ATR (human (endogenous in HUVEC)) (UniProt Q13535)
Test: proximity ligation; Duolink PLA in fixed (4% formaldehyde), Triton X-100 permeabilised HUVEC transduced with PCAT19 overexpression plasmid or pcDNA3.1+ control; anti-RPA2 and anti-ATR antibodies; PLA signals normalised to number of nuclei

Chains of the proteins cited; added tags and fusions are not shown.
UniProt Q13535: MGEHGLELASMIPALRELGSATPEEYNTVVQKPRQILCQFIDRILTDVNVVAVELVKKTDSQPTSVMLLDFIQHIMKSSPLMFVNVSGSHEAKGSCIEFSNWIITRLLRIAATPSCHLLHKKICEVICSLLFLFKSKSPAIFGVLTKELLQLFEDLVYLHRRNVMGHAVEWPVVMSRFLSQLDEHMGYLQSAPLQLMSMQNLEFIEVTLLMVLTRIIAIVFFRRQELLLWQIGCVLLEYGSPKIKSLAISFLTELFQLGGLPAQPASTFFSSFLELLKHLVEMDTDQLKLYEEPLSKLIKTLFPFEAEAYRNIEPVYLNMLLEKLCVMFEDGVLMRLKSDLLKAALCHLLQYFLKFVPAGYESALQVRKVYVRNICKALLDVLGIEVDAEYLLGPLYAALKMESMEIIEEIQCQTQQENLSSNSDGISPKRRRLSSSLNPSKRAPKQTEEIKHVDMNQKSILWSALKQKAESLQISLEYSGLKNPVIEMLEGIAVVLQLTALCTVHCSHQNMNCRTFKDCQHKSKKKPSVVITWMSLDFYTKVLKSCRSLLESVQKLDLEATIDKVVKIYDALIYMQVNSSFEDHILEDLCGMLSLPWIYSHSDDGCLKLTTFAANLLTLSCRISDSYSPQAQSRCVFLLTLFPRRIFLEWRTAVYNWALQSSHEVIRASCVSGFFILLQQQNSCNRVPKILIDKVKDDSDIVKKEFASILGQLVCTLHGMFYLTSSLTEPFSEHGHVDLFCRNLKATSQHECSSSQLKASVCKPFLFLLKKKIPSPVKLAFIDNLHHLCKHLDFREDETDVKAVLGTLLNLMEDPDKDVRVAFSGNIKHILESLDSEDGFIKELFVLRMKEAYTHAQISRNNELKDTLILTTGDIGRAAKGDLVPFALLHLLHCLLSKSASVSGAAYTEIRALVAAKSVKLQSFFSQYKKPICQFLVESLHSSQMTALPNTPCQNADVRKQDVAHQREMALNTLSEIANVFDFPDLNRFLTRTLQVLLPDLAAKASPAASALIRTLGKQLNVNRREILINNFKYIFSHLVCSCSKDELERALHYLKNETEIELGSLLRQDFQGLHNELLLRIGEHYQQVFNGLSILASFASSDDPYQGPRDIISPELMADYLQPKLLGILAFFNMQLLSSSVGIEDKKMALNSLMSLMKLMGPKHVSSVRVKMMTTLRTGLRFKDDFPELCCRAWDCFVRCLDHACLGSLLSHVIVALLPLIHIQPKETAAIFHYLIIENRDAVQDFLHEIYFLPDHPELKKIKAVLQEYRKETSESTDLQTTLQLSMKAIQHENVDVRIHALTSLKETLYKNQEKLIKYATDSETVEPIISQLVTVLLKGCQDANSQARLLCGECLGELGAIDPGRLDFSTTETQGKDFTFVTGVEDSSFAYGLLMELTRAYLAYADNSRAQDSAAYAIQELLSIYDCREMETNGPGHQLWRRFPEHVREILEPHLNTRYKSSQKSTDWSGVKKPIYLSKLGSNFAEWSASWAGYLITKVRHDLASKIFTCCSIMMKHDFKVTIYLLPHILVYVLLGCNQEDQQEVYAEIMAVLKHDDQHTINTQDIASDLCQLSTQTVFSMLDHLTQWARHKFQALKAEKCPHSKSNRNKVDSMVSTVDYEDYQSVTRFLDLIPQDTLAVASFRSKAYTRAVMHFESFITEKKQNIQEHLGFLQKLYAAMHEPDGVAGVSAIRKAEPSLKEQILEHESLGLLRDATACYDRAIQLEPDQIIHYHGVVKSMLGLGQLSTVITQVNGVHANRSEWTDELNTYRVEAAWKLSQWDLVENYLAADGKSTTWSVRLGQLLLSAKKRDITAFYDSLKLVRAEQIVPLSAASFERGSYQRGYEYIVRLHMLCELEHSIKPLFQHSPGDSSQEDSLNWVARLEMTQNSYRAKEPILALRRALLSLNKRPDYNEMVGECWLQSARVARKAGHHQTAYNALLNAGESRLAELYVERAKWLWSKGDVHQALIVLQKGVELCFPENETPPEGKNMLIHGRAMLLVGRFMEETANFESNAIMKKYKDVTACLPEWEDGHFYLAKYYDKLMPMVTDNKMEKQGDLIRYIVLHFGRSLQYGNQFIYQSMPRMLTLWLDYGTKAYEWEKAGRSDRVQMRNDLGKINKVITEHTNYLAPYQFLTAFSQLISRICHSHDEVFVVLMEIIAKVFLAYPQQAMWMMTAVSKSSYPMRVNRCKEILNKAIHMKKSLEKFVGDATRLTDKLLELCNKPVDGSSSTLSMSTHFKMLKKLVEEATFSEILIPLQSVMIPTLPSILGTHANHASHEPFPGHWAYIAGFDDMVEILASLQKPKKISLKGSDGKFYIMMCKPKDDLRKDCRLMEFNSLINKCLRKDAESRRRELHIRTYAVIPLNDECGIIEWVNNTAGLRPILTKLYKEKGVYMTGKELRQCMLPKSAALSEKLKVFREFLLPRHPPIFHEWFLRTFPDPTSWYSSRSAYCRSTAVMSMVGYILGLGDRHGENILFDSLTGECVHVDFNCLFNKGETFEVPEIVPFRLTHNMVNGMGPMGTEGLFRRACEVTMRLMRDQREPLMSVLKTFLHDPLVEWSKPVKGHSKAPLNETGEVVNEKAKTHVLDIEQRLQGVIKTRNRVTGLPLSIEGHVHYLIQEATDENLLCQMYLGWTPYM
UniProt P15927: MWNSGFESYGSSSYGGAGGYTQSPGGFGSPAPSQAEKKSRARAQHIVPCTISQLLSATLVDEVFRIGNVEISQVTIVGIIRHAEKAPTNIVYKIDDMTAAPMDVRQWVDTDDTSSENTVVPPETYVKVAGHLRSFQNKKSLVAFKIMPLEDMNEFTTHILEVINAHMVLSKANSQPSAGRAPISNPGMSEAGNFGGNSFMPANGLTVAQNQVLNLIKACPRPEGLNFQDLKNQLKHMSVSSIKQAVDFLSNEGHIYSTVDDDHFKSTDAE

**Q.** RPA2 (from UniProt P15927 1-270) was tested. Which binding did it give?
**A.** Its binding is “binds”.

— paper PMC9681662
